# Measurements taken from patent US11045507B2, “Bifidobacterium animalis AMT30 strain and the composition containing the strain of Bifidobacterium animalis AMT30” (priority 2019, dated 2021).
# At least one read-out could not be matched to a standard name with certainty.
# System: Bifidobacterium animalis AMT30
# Experiment: Ability of Bifidobacterium animalis AMT30 to grow in the presence of selected antibiotics (shared cultures, Garche's liquid medium)
# Type: cell-based
# Details: inoculum AMT30 4.9 × 10^6 cfu/ml; antibiotic at concentration corresponding to the animal dose per kg b.w.; control without antibiotic 2.4 × 10^9
# Method: Studies on the ability to grow of Bifidobacterium animalis AMT30 in the presence on 20 selected antibiotics were performed using shared cultures method. For this purpose Garche's liquid medium was inoculated with both Bifidobacterium animalis AMT30 in an amount of 4.9×10^6 colony forming units/ml and one of 20 antibiotics in concentration corresponding to an antibiotic dose used in animal treatment per kilogram of body weight. The culture was carried out in three parallel tubes under anaerobic conditions at 37° C. for 24 hours. In addition, parallel control culture of the studied strain without presence of selected antibiotics was carried out. The number of the live cells was determined directly after inoculation and after 24 hours. Incubation of bacteria on Petri dishes was carried out at 37° C. for 48 hours under anaerobic conditions (sealed jar with GasPack AN0025A cartridge, Oxoid).
smiles,measurement,value
CCCc1ncc(C[n+]2ccccc2C)c(N)n1 [Amprolium],The number of B. animalis AMT30 after 24 hours of incubation,1.5 × 10^9 cfu/ml
